PubChem BioAssay AID1159584, Peter MacCallum Cancer Centre – 2016
Purpose: 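Genes whose loss is lethal only together with E-cadherin loss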 (primary screen). Cells: human MCF10A breast epithelial cells, parental and CDH1-null. Reagent: siRNA against human genes. Measured: 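ATP luminescence (CellTiter-Glo) viability per line relative to mean mock wells over all plates, and the ratio of CDH1-null to parental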. Scale: CDH1-null / parental viability ratio: higher = CDH1-null cells survive relatively better than parental; CDH1-null viability vs mock: higher = more viable CDH1-null cells. Units: CDH1-null viability vs mock in fraction of mock.
This is an unselected part of about 18,000 reagents. Not all columns of the deposit are shown. Not given: the amount of reagent, the time to read-out.

Depletion of FGD3 came out at: CDH1-null / parental viability ratio 1.45; CDH1-null viability vs mock 0.9. With knock-down of PELO, the record shows CDH1-null / parental viability ratio 1.02; CDH1-null viability vs mock 0.57. Against COQ10A the deposit lists CDH1-null / parental viability ratio 1.03; CDH1-null viability vs mock 0.74. ADPRH showed CDH1-null / parental viability ratio 0.68; CDH1-null viability vs mock 0.61. Knock-down of THAP9 gave: CDH1-null / parental viability ratio 1.02; CDH1-null viability vs mock 0.86. With knock-down of SLC4A1AP, the screen gave CDH1-null / parental viability ratio 1.17; CDH1-null viability vs mock 1.15.

After knock-down of PITPNC1, the screen gave CDH1-null / parental viability ratio 0.76; CDH1-null viability vs mock 0.61. Depletion of HACD3 resulted in: CDH1-null / parental viability ratio 0.87; CDH1-null viability vs mock 0.71. For MAFF, the values are CDH1-null / parental viability ratio 0.61; CDH1-null viability vs mock 0.34. Against GALNT13, the values are CDH1-null / parental viability ratio 0.76; CDH1-null viability vs mock 0.62. After knock-down of TYW5, the screen gave CDH1-null / parental viability ratio 0.95; CDH1-null viability vs mock 0.7. Silencing of MCPH1 resulted in: CDH1-null / parental viability ratio 0.95; CDH1-null viability vs mock 0.84.

Depletion of TNNI3 gave: CDH1-null / parental viability ratio 1.05; CDH1-null viability vs mock 1.05. Against CREB1, the values are CDH1-null / parental viability ratio 0.66; CDH1-null viability vs mock 0.57. PCGF5 scored CDH1-null / parental viability ratio 0.88; CDH1-null viability vs mock 0.84. For SPOP, the values are CDH1-null / parental viability ratio 1.32; CDH1-null viability vs mock 0.74. Depletion of DLG2 came out at: CDH1-null / parental viability ratio 0.82; CDH1-null viability vs mock 0.9. After knock-down of PHETA2 the results were CDH1-null / parental viability ratio 1.29; CDH1-null viability vs mock 0.8.

For PLEKHG4B, the entry reads CDH1-null / parental viability ratio 1.28; CDH1-null viability vs mock 1. HNRNPM gave CDH1-null / parental viability ratio 1.1; CDH1-null viability vs mock 0.92. Depletion of SCLY gave: CDH1-null / parental viability ratio 1.11; CDH1-null viability vs mock 0.82. Against OR5B17, the entry reads CDH1-null / parental viability ratio 1.34; CDH1-null viability vs mock 0.67. After knock-down of BCAP31 the results were CDH1-null / parental viability ratio 0.81; CDH1-null viability vs mock 0.26. After knock-down of MOCS1 the results were CDH1-null / parental viability ratio 0.93; CDH1-null viability vs mock 0.84.

For LRRC4, the values are CDH1-null / parental viability ratio 0.93; CDH1-null viability vs mock 0.76. Depletion of SLC28A2 resulted in: CDH1-null / parental viability ratio 0.99; CDH1-null viability vs mock 0.86. Against WDCP, the entry reads CDH1-null / parental viability ratio 0.89; CDH1-null viability vs mock 0.87. Knock-down of IZUMO2 came out at: CDH1-null / parental viability ratio 0.9; CDH1-null viability vs mock 0.9. BDNF showed CDH1-null / parental viability ratio 0.92; CDH1-null viability vs mock 0.82. HEBP2 scored CDH1-null / parental viability ratio 1.28; CDH1-null viability vs mock 1.33.

Silencing of ROR2 came out at: CDH1-null / parental viability ratio 1; CDH1-null viability vs mock 0.86. GAB3 scored CDH1-null / parental viability ratio 1.15; CDH1-null viability vs mock 0.71. Knock-down of ANOS1 came out at: CDH1-null / parental viability ratio 0.9; CDH1-null viability vs mock 0.94. With knock-down of EPPK1, the screen gave CDH1-null / parental viability ratio 1; CDH1-null viability vs mock 0.94. DAZAP1 showed CDH1-null / parental viability ratio 1.05; CDH1-null viability vs mock 0.88. LCE5A scored CDH1-null / parental viability ratio 0.76; CDH1-null viability vs mock 0.62.

Knock-down of NFKBIB came out at: CDH1-null / parental viability ratio 0.76; CDH1-null viability vs mock 0.63. With knock-down of INPP5A the results were CDH1-null / parental viability ratio 1.64; CDH1-null viability vs mock 0.82. Against TDO2, the entry reads CDH1-null / parental viability ratio 0.97; CDH1-null viability vs mock 0.74. CFAP52 scored CDH1-null / parental viability ratio 1.07; CDH1-null viability vs mock 0.92. AGTPBP1 scored CDH1-null / parental viability ratio 0.85; CDH1-null viability vs mock 0.44. For RAC3 the deposit lists CDH1-null / parental viability ratio 1.02; CDH1-null viability vs mock 0.9.

After knock-down of NELFCD, the record shows CDH1-null / parental viability ratio 0.69; CDH1-null viability vs mock 0.5. After knock-down of CCDC77 the results were CDH1-null / parental viability ratio 1.07; CDH1-null viability vs mock 0.48. For CTSD the deposit lists CDH1-null / parental viability ratio 1.18; CDH1-null viability vs mock 0.97.

Copied from the list.
For “CDH1-null viability vs mock”, WDCP is entered as 0.87
Value of HACD3 in “CDH1-null viability vs mock”: 0.71
Under “CDH1-null viability vs mock”, LRRC4 shows 0.76
Under “CDH1-null / parental viability ratio”, PHETA2 shows 1.29
RAC3, CDH1-null / parental viability ratio: 1.02
Entry of LCE5A under “CDH1-null viability vs mock”: 0.62
